From PMC10897455
Numbering of substitutions follows the chain as printed. These are yes or no findings as the source states them, for the method shown. Binding seen in cells or lysates may run through a third protein. Some entries that bind do so weakly or less than the wild type. Sequences can lack the tags named with a protein.

By UniProt entry, the sequences of proteins in these tests, tags left out.
UniProt O14493: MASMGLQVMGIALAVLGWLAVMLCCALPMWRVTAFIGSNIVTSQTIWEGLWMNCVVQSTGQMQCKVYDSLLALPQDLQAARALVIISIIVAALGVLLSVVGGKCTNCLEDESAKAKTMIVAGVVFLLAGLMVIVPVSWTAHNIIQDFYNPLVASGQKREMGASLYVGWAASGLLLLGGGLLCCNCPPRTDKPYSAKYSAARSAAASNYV
UniProt O95832: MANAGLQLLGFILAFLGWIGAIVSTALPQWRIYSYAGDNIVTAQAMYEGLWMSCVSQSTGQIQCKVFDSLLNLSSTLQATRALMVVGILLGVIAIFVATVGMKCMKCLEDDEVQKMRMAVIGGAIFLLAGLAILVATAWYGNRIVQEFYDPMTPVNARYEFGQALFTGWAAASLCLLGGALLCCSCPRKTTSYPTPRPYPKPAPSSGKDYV

What was measured:
[1] = biological target: T1, TMEM25-FL (residues 27–366), N-terminally FLAG- or HA-tagged, in HEK293 cells (human) (UniProt Q86YD3); test: co-IP; cis: HEK293T cells co-transfected with two tagged proteins, cultured at low density; lysis in 150 mM NaCl, 4 mM EDTA, 10% glycerol, 0.5% Triton X-100, 50 mM Tris-HCl pH 7.5, 1 mM DTT; anti-FLAG (M2) or anti-HA (3F10) on protein G-Sepharose; immunoblot
T1 sequence (chain, N-glycosylated (complex-type and high-mannose-type N-glycans)): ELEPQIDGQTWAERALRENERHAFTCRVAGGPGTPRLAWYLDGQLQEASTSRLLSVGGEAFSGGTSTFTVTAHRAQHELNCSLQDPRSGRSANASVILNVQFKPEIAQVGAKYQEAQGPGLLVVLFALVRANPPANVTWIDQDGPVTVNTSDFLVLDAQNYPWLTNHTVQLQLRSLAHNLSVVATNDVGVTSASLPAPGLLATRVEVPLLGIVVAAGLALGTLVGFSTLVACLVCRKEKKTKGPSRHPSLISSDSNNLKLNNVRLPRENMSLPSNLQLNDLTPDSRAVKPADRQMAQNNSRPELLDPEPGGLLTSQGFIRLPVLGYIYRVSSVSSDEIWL

[2] = biological target: T1, TMEM25-FL (residues 27–366), N-terminally FLAG- or HA-tagged, in HEK293 cells (human); test: co-IP; trans: HEK293T cells expressing one tagged protein co-cultured to confluency with HEK293T cells expressing the other; lysate precipitated with anti-FLAG antibody; immunoblot
[3] = biological target: T1, TMEM25-FL (residues 27–366), N-terminally FLAG- or HA-tagged, in HEK293 cells (human); test: co-IP; cis, with or without a co-expressed third protein: HEK293T cells triply transfected (HA–TMEM25, HA–JAM-A or Myc–Par3 as third protein), low density; anti-FLAG or anti-HA precipitation; immunoblot, band ratios
[4] = biological target: T2, TMEM25-ΔC (residues 27–362), HA-tagged, in HEK293 cells (human) (UniProt Q86YD3); test: as above
T2 sequence: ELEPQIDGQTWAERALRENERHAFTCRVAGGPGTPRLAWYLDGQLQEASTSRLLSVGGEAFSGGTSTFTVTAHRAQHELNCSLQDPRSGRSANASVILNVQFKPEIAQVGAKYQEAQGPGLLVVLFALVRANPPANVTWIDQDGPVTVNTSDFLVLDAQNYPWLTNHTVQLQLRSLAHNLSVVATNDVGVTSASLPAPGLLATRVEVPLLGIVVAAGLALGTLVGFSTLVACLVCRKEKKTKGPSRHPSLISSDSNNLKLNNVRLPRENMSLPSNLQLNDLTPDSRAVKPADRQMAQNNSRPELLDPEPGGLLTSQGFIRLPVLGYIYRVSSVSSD

[5] = biological target: T3, TMEM25–HA (C-terminally HA-tagged TMEM25-FL, residues 27–366) (human) (UniProt Q86YD3); test: proximity ligation; Duolink PLA on fixed, permeabilised HEK293 cells expressing FLAG- and HA-tagged proteins; anti-FLAG rabbit polyclonal and anti-HA mouse monoclonal primary antibodies; signal at the plasma membrane of single cells (cis)
T3 sequence: T1 sequence (chain, N-glycosylated (complex-type and high-mannose-type N-glycans))

[6] = biological target: T4, TMEM25-NQ (N106Q/N119Q/N162Q/N175Q/N192Q/N205Q), FLAG- or HA-tagged, in HEK293 cells (human) (UniProt Q86YD3); test: co-IP; cis: HEK293T cells co-transfected with two tagged proteins, cultured at low density; lysis in 150 mM NaCl, 4 mM EDTA, 10% glycerol, 0.5% Triton X-100, 50 mM Tris-HCl pH 7.5, 1 mM DTT; anti-FLAG (M2) or anti-HA (3F10) on protein G-Sepharose; immunoblot
T4 sequence: T1 sequence (chain, N-glycosylated (complex-type and high-mannose-type N-glycans)) with N80Q, N93Q, N136Q, N149Q, N166Q, N179Q

[7] = biological target: T5, TMEM25-ΔICR (residues 27–268), FLAG-tagged, in HEK293 cells (human) (UniProt Q86YD3); test: as above
T5 sequence: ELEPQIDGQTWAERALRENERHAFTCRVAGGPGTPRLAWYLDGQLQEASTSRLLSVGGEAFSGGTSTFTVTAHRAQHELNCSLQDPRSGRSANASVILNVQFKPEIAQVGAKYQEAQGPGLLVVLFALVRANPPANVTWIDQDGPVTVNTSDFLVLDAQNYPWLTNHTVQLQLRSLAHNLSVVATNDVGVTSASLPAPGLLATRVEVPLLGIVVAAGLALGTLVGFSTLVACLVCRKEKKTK

binding [1]	binding [2]	binding [3]	binding [4]	binding [5]	binding [6]	binding [7]	Substance
no binding							claudin-4 (residues 1–209), FLAG-tagged, in HEK293 cells (from UniProt O14493 1-209)
binds	binds	binds	binds	binds	binds	binds	claudin-1 (residues 1–211), FLAG- or Myc-tagged, in HEK293 cells (from UniProt O95832 1-211)
